# Experimental data: PubChem BioAssay AID1671190 (National Center for Advancing Translational Sciences (NCATS), 2021)
# Protein sequences, listed by entry. Tags and fused reporters are not part of them. Lines headed by an entry give the natural chain unless they say otherwise; changes in a name come on top.
# UniProt P18054: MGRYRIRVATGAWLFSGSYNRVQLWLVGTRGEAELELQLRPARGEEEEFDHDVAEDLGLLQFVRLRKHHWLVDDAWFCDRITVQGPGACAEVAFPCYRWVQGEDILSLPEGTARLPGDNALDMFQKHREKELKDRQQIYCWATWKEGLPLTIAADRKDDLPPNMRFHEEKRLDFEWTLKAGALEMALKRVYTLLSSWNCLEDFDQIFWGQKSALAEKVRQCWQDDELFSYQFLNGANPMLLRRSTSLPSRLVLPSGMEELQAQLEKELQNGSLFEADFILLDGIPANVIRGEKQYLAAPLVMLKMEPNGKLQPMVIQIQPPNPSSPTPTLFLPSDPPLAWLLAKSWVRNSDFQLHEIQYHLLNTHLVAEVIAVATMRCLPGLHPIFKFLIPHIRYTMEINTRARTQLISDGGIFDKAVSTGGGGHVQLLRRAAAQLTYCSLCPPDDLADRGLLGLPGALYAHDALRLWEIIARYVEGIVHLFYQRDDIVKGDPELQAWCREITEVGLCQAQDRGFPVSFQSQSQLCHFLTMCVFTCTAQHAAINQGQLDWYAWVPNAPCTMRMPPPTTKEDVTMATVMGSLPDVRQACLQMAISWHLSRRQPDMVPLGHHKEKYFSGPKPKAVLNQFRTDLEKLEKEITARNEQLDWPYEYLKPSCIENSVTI
# Among all 580,000 compounds or so, about 6,100 (1.1%) were called active. The inconclusive results got no clear call from the source; some entries with a clear call stand among them for comparison. Calls follow the shape of the dose curve; as a rule, active = well fitted inhibition curve with a large enough effect; inconclusive = small, poorly fitted or top-dose-only effect, or another doubt; inactive = no such curve, though single readings can be large or run the other way. A potency beside an inconclusive call is a rough fit, not a confirmed value.
# Molecular target: Polyunsaturated fatty acid lipoxygenase ALOX12 (Homo sapiens) (UniProt P18054)
# Assay: Primary qHTS assay for inhibitors of human arachidonate 12S-lipoxygenase (ALOX12): Round 2
# Details: purified 12hLO, xylenol orange hydroperoxide absorbance; activity change, negative = inhibition: at 108 µM (top of the series) unless noted
# Source text: Assay Provider: Theodore R. Holman Ph.D. University of California, Santa Cruz, California Human lipoxygenase 12hLO is a member of the closely related lipoxygenase family of enzymes which catalyze the site-specific oxidation of arachidonic acid to various hormone precursor molecules and as such is a candidate for drug development in a variety of disease areas, such as cancer and inflammation. Inhibition of 12hLO activity was screened by utilizing arachidonic acid as a substrate. The extent of hydroperoxide product formation was measured by a secondary chromogenic reaction in which xylenol orange (XO, Sigma-Aldrich, cat. number 39,818-7) reacts with the ferric ions produced from the reaction between the hydroperoxide and ferrous ions. The Fe (III)-XO complex is characterized with red-shifted absorbance at 560 nm. A purified preparation of human 12hLO was supplied by Dr. Holman laboratory, University of California, Santa Cruz.
# PROTOCOL TABLE SEQUENCE No. (e.g., 1, 2, 3, etc.); […] (e.g., Cells, Incubation, Reagent, etc.); VALUE; DESCRIPTION 1; Enzyme; 3 uL; 150 nM 12hLO enzyme solution dispensed in 1536-well Greiner black, clear bottom plates. 2; Compound; 23 nL; compounds and controls were added. 3; Incubate; 15 min; room temperature. 4; Substrate; 1 uL; 40 uM arachidonic acid (final concentration). 5; Incubate; 30 min; room temperature. 6; Reagent; 4 uL; Fe-XO solution was added to each well. 7; Incubation; 30 min; room temperature 8; Detector; absorbance; Read 1 at 405 nm absorbance using ViewLux (Perkin-Elmer) CCD imager. 9; Detector; absorbance; Read 2 at 573 nm absorbance using ViewLux (Perkin-Elmer) CCD imager. NOTES (numbers refer to sequence above) 1; 150 nM 12hLO (final concentration) in buffer solution (25 mM Hepes, 0.01% Triton X-100, pH 7.0) was dispensed in columns 1, 2, 5-48. Column 1 is neutral (100% activity). Buffer only was dispensed in columns 3 and 4 as no enzyme negative controls. The plates were covered with metal lids with gas-exchange holes. 2; Compounds were pin transferred via a Kalypsys Pin Tool (Wako USA) in column 5-48. Control compound was transferred in column 2, titration of nordihydroguaiaretic acid (NDGA, Sigma-Aldrich, N5023) with top concentration of 20 mM in DMSO then 1:3 dilution in duplicate. Dilution factor of 23 nL into 4 uL final assay volume. 3; Covered assay plates were incubated for 15 min at room temperature. 4; Substrate was added to start the reaction; 40 uM arachidonic acid (Sigma-Aldrich, St. Louis, MO) was dispensed throughout the plate. 6; Chromogenic detection reagent solution (divalent iron/xylenol orange, Fe-XO) was added to each well: 200 uM xylenol orange, 300 uM ferrous ammonium sulfate prepared freshly in 50 mM sulfuric acid. 8, 9; Two absorbance readouts were obtained at 405 nm and at 573 nm using a ViewLux high-throughput CCD plate imager (Perkin-Elmer). The 573 to 405 (Read 2 / Read 1) absorbance ratio was used to compute reaction progress.
# % is scaled to controls: 0 for no effect and ±100 for the full control effect; potency is read from the fitted curve at half-maximal effect.
SMILES,Potency,"activity change, negative = inhibition"
COc1ccc(C#Cc2c(C=O)n(C)c3ccccc23)cc1,"inconclusive: 39.8 µM [inhibitor, partial curve, poor fit]",–
COc1cc(/C=C(/C#N)C(=O)C(C)(C)C)cc(Cl)c1OC,"inconclusive: 56.2 µM [inhibitor, partial curve, poor fit]",–
Cc1ccc2nc(NC(=O)CCCc3nc4ccccc4s3)sc2c1,–,inactive: 144%
Cc1ccc(N2C(=O)c3ccccc3C2C(=O)c2ccc(C)c(C)c2O)cc1 (stereo unspecified),"inconclusive: 44.7 µM [inhibitor, partial curve, poor fit]",–
C=CC1(C)CN(Cc2ccco2)S(=O)(=O)c2c(F)cccc2O1 (stereo unspecified),–,inactive: -22.7%
CCn1c(COc2ccc(C(C)C)cc2)nnc1SCC(=O)Nc1nccs1,–,inactive: 1.83%
CCOc1cc(CNc2ccc(N3CCOCC3)cc2)cc(Br)c1OCC,active: 31.6 µM,–
CC1OC2(C)OC(=N)C1(C#N)C(C#N)(C#N)C2c1ccccc1 (stereo unspecified),"inconclusive: 50.1 µM [inhibitor, partial curve, poor fit]",–
CCOC(=O)c1ccc(NC(=O)Nc2ccc(F)cc2)cc1,"inconclusive: 7.08 µM [inhibitor, full curve, poor fit]",–
CC(C)Cc1nnc(NC(=O)CSc2nc(=O)cc(N)n2-c2ccccc2)s1,"inconclusive: 1.26 µM [inhibitor, partial curve, poor fit]",–
Oc1cc(O)c2c(c1)OC(c1ccc(O)c(O)c1)C(O)C2 (stereo unspecified),"inconclusive: 12.6 µM [inhibitor, partial curve, poor fit]",–
Cc1cccc(NC(=O)c2ccccc2SCC(=O)NCc2ccco2)c1,"inconclusive: 10 µM [inhibitor, full curve, poor fit]",–
O=C(Cc1cccs1)NCC1CCCCC(=O)N1 (stereo unspecified),–,inactive: 19.5%
Cc1ccc(NCCNc2ccc(C)cc2)cc1,"inconclusive: 44.7 µM [inhibitor, partial curve, poor fit]",–
COc1cc([C@@H]2CC=C(C(=O)O)[C@H](c3ccc(F)cc3)N2S(=O)(=O)c2ccc(C)cc2)cc(OC)c1OC,"inconclusive: 112 µM [inhibitor, single point]",–
CCCCCCN[C@H]1CCC2C3CC=C4C[C@@H](O)CC[C@]4(C)C3CC[C@@]21C (stereo partly specified),"inconclusive: 50.1 µM [inhibitor, partial curve, poor fit]",–
Cc1cccc(C)c1NC(=O)CSc1nnc(C)n1CC1CCCO1 (stereo unspecified),–,inactive: -6.86%
Cc1ncccc1C(=O)N1CC(=O)N(C2CCCCC2)CC(OCc2ccccc2)C1 (stereo unspecified),–,inactive: 23.4%
COc1ccccc1OCC(=O)Nc1ncc(C)s1,"inconclusive: 100 µM [inhibitor, single point]",–
CCN(CC)c1ccc(S(=O)(=O)N2CCOCC2)cc1NC(=O)CNCc1ccccc1,–,inactive: 16.7%
Cc1cc(C)c(/C=N/NC(=O)C(c2ccccc2)c2ccccc2)c(C)c1,"inconclusive: 89.1 µM [inhibitor, partial curve, poor fit]",–
Cc1cc(C)nc(OC(C(=O)O)C(OCCc2ccccc2)(c2ccc(F)cc2)c2ccc(F)cc2)n1 (stereo unspecified),–,inactive: -21%
CCCc1n[nH]c(=S)n1Cc1ccco1,–,inactive: -7.64%

# At a glance, some entries already given:
SMILES,Potency,"activity change, negative = inhibition"
CCn1c(COc2ccc(C(C)C)cc2)nnc1SCC(=O)Nc1nccs1,–,inactive: 1.83%
CCOc1cc(CNc2ccc(N3CCOCC3)cc2)cc(Br)c1OCC,active: 31.6 µM,–

# (cont.)

SMILES,Potency,"activity change, negative = inhibition"
CC(=O)C(=Cc1ccc(-c2cccc([N+](=O)[O-])c2)o1)C(C)=O,active: 0.631 µM,–
Cc1cccc(NC(=O)N2CCC(OC3CCN(S(C)(=O)=O)CC3)CC2)c1C,–,inactive: 29%
CC(C)Cn1c(CN2CCN(c3cccc(Cl)c3)CC2)nc2c1c(=O)[nH]c(=O)n2C,"inconclusive: 50.1 µM [inhibitor, single point]",–
COc1ccc(NC(=O)[C@@H]2CCCN2S(=O)(=O)c2ccc(Cl)cc2)cc1,–,inactive: 1.13%
COc1ccccc1-c1ccnc(N[C@H]2CO[C@H]3[C@@H]2OC[C@@H]3NC(=O)CCC(=O)O)n1,"inconclusive: 39.8 µM [inhibitor, full curve]",–
Cn1c(C=O)cc2ccccc21,–,inactive: 10.7%
O=C(NCc1ccc(OC(F)F)cc1)c1ccc(-n2cnnn2)cc1,–,inactive: 12.5%
O=C1OC(Cc2ccccn2)C(=O)C1=C1SCCS1 (stereo unspecified),"inconclusive: 35.5 µM [inhibitor, partial curve, poor fit]",–
Cc1cc(C)c(NC(=O)CN)c(C)c1,–,inactive: -18%
CCOc1ccc(C(=O)C[n+]2ccc(C(=O)NCc3ccccc3)cc2)cc1,"inconclusive: 44.7 µM [inhibitor, partial curve, poor fit]",–
Cc1ccc(-n2nc(N3CCN(C(=O)Nc4ccccc4C)CC3)ccc2=O)cc1C,–,inactive: 1.08%
Cc1cccc(OC(C)C(=O)OCC(=O)Nc2sccc2C(N)=O)c1 (stereo unspecified),–,inactive: 5.88%
O=P(O)(O)CCP(=O)(c1ccccc1)c1ccccc1,"inconclusive: 25.1 µM [inhibitor, partial curve, poor fit]",–
Cc1ccccc1S(=O)(=O)N1CCC(c2noc(-c3cccnc3)n2)C1 (stereo unspecified),–,inactive: 14.3%
COc1ccc(NC(=O)c2cc3c(n2C)CCN(Cc2ccc(F)cc2)C3)cc1,active: 17.8 µM,–
Nc1ccc(OCCCl)c(OCCCl)c1,"inconclusive: 5.62 µM [inhibitor, partial curve, poor fit]",–
CSc1nc(C)c(Cc2ccccc2)c(=O)[nH]1,"inconclusive: 44.7 µM [inhibitor, partial curve, poor fit]",–
Cc1cc(=O)n2[nH]cc(-c3ccccc3)c2n1,"inconclusive: 22.4 µM [inhibitor, partial curve, poor fit]",–
COc1ccc(C2C(C(=O)c3cccs3)=C(O)C(=O)N2c2cccc(C)n2)cc1OC (stereo unspecified),"inconclusive: 112 µM [inhibitor, single point]",–
O=C(NC1C[C@H]2CC[C@@H](C1)N2C(=O)c1ccc(Cl)s1)c1ccncc1 (stereo partly specified),–,inactive: 12.1%
CC(CCc1ccccc1)NS(=O)(=O)c1ccc(Cl)c(C(=O)O)c1 (stereo unspecified),"inconclusive: 35.5 µM [inhibitor, partial curve, poor fit]",–
COc1cc2c(cc1NC(=O)CCCCCN1C(=O)CCC1=O)oc1ccccc12,–,inactive: -0.375%
Cn1cnc(S(=O)(=O)N2CCC3(CC2)NCCc2c3[nH]c3ccccc23)c1,"inconclusive: 22.4 µM [inhibitor, full curve, poor fit]",–
